Where two headings read alike, the source gives them in different places. Results are given in words; binding and its absence hold for the method and conditions named. Binding seen in cells or lysates may run through a third protein. Some entries that bind do so weakly or less than the wild type. Values belong to the molecule of their own block, whether it stands above or below them.
Columns and labels:
Assay in all cases: split reporter
[1] = target: T1, Msb4_(22-81)-Spa2CRU (S. cerevisiae) (UniProt Q12317+P23201)
Spa2CRU (S. cerevisiae) [2] = target: Spa2CRU (S. cerevisiae) (UniProt P23201)
Msb3CRU (S. cerevisiae) = target: T2, Msb3CRU (S. cerevisiae) (UniProt P48566)
T2 sequence: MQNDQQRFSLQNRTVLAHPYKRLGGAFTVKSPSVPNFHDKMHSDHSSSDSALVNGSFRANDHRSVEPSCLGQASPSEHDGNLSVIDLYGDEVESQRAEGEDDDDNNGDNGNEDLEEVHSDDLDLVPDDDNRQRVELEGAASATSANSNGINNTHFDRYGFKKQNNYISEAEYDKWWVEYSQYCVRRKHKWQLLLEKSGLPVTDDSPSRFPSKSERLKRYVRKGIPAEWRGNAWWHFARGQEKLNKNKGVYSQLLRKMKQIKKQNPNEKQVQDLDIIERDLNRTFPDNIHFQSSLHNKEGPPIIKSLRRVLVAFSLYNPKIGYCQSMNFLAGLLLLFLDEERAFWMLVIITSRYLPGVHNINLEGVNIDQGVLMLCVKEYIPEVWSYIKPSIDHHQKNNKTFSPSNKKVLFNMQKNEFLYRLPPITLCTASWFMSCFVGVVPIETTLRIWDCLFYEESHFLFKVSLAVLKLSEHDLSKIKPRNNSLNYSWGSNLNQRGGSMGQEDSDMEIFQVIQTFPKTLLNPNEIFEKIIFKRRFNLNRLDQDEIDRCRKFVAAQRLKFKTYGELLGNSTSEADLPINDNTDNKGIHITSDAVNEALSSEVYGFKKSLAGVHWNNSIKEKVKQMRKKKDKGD

Sequences of proteins named here, by UniProt entry; tags and fusion partners are left off. A change or cut given only in a name is not applied to a line headed by its entry. A line that says so, or that is headed by a name, gives the form on record, which may keep a tag or linker. Residues count along the entry.
UniProt P23201: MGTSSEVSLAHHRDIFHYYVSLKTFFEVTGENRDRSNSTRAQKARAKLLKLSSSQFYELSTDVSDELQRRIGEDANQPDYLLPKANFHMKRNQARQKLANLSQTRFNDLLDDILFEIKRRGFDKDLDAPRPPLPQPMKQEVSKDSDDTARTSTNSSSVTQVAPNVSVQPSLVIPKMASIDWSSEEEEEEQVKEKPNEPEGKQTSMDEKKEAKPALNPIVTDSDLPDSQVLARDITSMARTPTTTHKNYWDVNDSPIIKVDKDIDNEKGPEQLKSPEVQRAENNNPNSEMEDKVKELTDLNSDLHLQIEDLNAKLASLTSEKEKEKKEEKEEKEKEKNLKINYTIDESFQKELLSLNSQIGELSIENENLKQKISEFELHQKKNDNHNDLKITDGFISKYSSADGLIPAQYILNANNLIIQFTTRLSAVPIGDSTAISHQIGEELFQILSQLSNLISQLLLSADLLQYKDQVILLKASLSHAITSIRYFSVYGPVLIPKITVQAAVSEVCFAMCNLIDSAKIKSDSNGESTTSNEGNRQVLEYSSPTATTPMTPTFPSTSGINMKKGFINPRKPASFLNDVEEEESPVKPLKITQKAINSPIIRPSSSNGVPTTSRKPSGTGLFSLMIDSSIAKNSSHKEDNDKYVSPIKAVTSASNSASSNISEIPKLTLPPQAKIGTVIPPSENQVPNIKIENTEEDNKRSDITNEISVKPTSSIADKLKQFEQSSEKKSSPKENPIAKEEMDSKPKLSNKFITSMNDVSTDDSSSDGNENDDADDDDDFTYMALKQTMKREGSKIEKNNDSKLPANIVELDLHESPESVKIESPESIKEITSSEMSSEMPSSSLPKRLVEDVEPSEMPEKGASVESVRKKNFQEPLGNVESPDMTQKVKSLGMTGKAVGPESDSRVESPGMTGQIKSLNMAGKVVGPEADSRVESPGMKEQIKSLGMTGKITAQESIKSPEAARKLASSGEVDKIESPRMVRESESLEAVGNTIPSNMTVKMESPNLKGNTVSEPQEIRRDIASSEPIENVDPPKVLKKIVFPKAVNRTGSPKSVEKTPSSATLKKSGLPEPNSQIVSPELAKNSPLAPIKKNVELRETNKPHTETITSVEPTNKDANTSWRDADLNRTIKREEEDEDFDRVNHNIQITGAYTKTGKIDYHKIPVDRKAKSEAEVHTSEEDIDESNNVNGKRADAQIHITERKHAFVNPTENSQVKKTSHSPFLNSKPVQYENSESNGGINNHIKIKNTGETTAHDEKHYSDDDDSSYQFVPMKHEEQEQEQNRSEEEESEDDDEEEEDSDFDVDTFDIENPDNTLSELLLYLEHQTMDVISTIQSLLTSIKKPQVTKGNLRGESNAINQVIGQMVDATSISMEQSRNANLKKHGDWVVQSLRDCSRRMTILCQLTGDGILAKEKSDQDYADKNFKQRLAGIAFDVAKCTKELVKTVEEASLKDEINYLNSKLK
SHD1CRU: residues 1-124 of P23201
SHD1CRU L48A (P23201, form named): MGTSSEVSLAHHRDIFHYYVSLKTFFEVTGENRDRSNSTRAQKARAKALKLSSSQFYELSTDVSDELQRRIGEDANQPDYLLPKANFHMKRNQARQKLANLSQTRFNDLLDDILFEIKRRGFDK
SHD1CRU L48A and L51A (P23201, form named): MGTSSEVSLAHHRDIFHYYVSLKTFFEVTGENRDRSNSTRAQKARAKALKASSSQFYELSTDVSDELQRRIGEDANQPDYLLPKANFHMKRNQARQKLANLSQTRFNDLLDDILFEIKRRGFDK
SHD1CRU L101A (P23201, form named): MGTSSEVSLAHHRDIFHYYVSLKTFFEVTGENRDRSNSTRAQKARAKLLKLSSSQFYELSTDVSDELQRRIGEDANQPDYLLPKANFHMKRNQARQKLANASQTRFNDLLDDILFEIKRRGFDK
SHD1CRU L109A (P23201, form named): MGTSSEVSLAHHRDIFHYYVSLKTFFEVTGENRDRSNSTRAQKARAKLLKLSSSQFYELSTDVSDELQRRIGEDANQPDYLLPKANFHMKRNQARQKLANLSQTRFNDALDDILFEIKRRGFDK
SHD1_(K97D) (P23201, form named): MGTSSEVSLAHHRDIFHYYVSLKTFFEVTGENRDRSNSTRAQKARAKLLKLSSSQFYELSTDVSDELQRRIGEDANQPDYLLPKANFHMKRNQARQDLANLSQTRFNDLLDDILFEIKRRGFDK
SHD1CRU L101A and L109A (P23201, form named): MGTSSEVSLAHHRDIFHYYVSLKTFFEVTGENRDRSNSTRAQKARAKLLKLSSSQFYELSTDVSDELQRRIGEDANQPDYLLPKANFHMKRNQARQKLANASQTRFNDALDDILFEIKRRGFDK
SHD1CRU L51A (P23201, form named): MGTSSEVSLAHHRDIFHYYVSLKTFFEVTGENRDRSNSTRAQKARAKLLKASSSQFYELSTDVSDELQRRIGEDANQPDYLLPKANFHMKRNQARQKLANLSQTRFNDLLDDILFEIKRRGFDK
UniProt P43597: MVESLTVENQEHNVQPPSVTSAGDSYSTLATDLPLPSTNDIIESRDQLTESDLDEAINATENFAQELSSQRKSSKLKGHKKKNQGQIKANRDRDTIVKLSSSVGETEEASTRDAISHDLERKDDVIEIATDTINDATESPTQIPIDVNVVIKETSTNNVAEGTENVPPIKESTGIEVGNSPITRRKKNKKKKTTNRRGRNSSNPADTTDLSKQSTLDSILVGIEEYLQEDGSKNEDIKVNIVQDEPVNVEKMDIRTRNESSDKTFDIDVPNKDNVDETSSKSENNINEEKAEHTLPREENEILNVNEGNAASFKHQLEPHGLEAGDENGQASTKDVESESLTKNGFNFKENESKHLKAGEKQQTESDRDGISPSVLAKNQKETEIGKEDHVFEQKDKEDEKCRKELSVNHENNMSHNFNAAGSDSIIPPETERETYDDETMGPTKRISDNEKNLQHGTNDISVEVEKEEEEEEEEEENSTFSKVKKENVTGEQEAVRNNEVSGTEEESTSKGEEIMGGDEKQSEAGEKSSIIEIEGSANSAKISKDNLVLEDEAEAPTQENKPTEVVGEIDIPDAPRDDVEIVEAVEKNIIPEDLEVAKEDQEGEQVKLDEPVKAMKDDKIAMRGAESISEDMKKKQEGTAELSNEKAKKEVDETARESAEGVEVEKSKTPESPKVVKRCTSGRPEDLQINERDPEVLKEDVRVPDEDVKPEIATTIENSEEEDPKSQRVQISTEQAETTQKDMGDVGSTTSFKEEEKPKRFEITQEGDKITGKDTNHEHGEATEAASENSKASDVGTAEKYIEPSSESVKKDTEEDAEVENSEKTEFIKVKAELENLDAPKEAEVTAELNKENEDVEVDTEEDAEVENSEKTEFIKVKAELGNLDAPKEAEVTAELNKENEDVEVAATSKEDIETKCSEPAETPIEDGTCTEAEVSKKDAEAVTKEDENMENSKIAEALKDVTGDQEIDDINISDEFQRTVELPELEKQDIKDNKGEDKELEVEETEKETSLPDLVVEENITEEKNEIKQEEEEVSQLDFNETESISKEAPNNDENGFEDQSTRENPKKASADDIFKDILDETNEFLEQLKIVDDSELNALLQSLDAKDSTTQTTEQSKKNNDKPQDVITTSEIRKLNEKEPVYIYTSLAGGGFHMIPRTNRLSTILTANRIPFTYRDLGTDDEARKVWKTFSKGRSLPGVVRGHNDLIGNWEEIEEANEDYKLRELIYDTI

[3] = target: T3, Msb4_(Δ27-44)CRU (S. cerevisiae) (UniProt Q12317)
T3 sequence: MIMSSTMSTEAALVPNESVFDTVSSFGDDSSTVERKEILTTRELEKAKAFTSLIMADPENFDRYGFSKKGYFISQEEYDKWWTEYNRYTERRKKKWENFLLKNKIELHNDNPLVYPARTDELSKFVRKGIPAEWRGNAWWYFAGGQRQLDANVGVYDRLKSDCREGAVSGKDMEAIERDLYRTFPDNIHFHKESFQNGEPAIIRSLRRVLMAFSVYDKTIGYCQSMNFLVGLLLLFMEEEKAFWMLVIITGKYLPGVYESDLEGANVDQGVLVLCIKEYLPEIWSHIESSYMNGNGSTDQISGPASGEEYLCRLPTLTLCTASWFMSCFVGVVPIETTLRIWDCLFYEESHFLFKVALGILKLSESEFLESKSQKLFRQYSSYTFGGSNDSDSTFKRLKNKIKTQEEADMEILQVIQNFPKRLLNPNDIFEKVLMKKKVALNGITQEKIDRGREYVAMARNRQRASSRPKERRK

Msb4CRU (S. cerevisiae) = target: T4, Msb4CRU (S. cerevisiae) (UniProt Q12317)
T4 sequence: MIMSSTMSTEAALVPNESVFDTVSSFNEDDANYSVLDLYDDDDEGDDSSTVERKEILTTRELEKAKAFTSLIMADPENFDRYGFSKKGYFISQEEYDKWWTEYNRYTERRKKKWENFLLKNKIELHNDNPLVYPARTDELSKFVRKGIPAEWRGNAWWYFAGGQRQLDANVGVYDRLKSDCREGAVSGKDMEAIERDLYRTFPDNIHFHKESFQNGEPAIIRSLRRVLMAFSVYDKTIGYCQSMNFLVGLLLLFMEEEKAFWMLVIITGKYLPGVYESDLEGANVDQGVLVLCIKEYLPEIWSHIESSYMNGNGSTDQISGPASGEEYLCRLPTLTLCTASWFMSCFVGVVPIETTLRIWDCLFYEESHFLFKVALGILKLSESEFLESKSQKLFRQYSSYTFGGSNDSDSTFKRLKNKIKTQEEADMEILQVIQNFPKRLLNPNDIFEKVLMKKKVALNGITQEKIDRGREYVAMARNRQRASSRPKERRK

[4] = target: T5, Msb3_(Δ76-93)CRU (S. cerevisiae) (UniProt P48566)
T5 sequence: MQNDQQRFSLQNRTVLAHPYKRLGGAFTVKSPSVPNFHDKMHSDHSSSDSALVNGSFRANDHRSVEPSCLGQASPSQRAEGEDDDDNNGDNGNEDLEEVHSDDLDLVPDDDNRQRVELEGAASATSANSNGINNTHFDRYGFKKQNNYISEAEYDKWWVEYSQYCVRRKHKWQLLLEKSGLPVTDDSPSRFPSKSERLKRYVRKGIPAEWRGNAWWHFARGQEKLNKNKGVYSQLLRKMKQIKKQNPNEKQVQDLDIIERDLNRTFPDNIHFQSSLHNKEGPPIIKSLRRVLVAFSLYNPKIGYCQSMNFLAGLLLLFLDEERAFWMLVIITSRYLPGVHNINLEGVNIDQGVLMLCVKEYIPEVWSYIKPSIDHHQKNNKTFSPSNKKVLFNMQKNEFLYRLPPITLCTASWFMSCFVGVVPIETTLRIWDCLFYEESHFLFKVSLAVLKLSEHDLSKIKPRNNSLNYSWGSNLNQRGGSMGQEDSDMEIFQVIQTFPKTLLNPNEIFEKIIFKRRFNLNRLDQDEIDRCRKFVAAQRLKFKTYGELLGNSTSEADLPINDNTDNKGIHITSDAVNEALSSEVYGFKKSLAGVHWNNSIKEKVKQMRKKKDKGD

[5] = target: T1, Msb4_(22-81)-Spa2CRU (S. cerevisiae); remark: listed apart in the source
Spa2CRU (S. cerevisiae) [6] = target: Spa2CRU (S. cerevisiae) (UniProt P23201); remark: listed apart in the source
[7] = target: Msb4_(22-81Δ35-39)-Spa2CRU (S. cerevisiae) (UniProt Q12317+P23201)
[8] = target: SHD1CRU L48A (S. cerevisiae) (UniProt P23201)
[9] = target: SHD1CRU L48A and L51A (S. cerevisiae) (UniProt P23201)
[10] = target: SHD1CRU L101A (S. cerevisiae) (UniProt P23201)
[11] = target: SHD1CRU L109A (S. cerevisiae) (UniProt P23201)
[12] = target: SHD1_(K97D) (S. cerevisiae) (UniProt P23201)
SHD1CRU (S. cerevisiae) [13] = target: SHD1CRU (S. cerevisiae) (UniProt P23201)
[14] = target: SHD1CRU L101A and L109A (S. cerevisiae) (UniProt P23201)
[15] = target: SHD1CRU L51A (S. cerevisiae) (UniProt P23201)
SHD1CRU (S. cerevisiae) [16] = target: SHD1CRU (S. cerevisiae) (UniProt P23201); remark: listed apart in the source

binding [1]: binds | binding (Spa2CRU (S. cerevisiae) [2]): binds
Molecule: Nub-Aip5 (from UniProt P43597 1-1233)

binding (Msb3CRU (S. cerevisiae)): binds | binding [3]: binds | binding (Msb4CRU (S. cerevisiae)): binds | binding [4]: binds
B1: Nub-Sec4 (protein, UniProt P07560 1-215)
chain: MSGLRTVSASSGNGKSYDSIMKILLIGDSGVGKSCLLVRFVEDKFNPSFITTIGIDFKIKTVDINGKKVKLQLWDTAGQERFRTITTAYYRGAMGIILVYDVTDERTFTNIKQWFKTVNEHANDEAQLLLVGNKSDMETRVVTADQGEALAKELGIPFIESSAKNDDNVNEIFFTLAKLIQEKIDSNKLVGVGNGKEGNISINSGSGNSSKSNCC

binding [5]: no binding | binding (Spa2CRU (S. cerevisiae) [6]): binds | binding [7]: binds | binding [8]: binds | binding [9]: no binding | binding [10]: binds | binding [11]: binds | binding [12]: binds | binding (SHD1CRU (S. cerevisiae) [13]): binds | binding [14]: no binding | binding [15]: binds | binding (SHD1CRU (S. cerevisiae) [16]): binds
B2: Nub-Msb4 (protein, UniProt Q12317 1-492)
chain: MIMSSTMSTEAALVPNESVFDTVSSFNEDDANYSVLDLYDDDDEGDDSSTVERKEILTTRELEKAKAFTSLIMADPENFDRYGFSKKGYFISQEEYDKWWTEYNRYTERRKKKWENFLLKNKIELHNDNPLVYPARTDELSKFVRKGIPAEWRGNAWWYFAGGQRQLDANVGVYDRLKSDCREGAVSGKDMEAIERDLYRTFPDNIHFHKESFQNGEPAIIRSLRRVLMAFSVYDKTIGYCQSMNFLVGLLLLFMEEEKAFWMLVIITGKYLPGVYESDLEGANVDQGVLVLCIKEYLPEIWSHIESSYMNGNGSTDQISGPASGEEYLCRLPTLTLCTASWFMSCFVGVVPIETTLRIWDCLFYEESHFLFKVALGILKLSESEFLESKSQKLFRQYSSYTFGGSNDSDSTFKRLKNKIKTQEEADMEILQVIQNFPKRLLNPNDIFEKVLMKKKVALNGITQEKIDRGREYVAMARNRQRASSRPKERRK

Reference: doi:10.1101/2025.06.12.659263
